Source: patent US20260297042A1, “BIARYLAMIDE DERIVATIVES AND THEIR USE AS PKMYT1 INHIBITORS” (CANCER RESEARCH TECHNOLOGY LIMITED, priority 2023, published 2026)
The structures given here were assigned with low confidence; some may be wrong.

Chains of the proteins cited; added tags and fusions are not shown. Residues count along the entry.
UniProt Q99640, 75-362 limits assumed: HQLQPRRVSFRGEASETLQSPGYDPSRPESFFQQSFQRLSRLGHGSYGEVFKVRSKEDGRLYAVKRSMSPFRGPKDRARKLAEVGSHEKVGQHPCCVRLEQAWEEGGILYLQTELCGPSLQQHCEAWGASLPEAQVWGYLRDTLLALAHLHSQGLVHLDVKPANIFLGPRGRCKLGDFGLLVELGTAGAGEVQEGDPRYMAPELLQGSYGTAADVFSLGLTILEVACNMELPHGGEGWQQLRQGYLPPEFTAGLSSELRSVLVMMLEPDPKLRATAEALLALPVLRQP
UniProt P30291, whole entry: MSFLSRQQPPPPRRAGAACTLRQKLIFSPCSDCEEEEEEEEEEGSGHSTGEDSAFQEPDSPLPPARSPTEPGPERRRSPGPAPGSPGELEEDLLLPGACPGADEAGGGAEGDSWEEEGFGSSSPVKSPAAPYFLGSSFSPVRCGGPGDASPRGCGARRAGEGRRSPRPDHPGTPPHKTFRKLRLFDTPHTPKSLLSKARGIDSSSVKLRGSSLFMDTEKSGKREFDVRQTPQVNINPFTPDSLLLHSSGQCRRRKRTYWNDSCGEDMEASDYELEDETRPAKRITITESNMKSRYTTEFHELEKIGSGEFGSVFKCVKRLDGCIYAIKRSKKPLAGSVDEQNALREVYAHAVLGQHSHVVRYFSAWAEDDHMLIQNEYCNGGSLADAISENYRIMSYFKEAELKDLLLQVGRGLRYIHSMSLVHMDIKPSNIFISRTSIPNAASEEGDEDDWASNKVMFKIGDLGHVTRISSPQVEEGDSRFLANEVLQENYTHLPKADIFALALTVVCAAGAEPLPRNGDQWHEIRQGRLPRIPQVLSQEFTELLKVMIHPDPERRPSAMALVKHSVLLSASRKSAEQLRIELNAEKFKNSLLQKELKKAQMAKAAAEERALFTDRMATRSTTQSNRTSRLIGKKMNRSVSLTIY

Tests used:
[1] = biological target: Human PKMYT1 (Homo sapiens, UniProt Q99640); experiment: PKMYT1 biochemical ADP-Glo enzymatic assay; conditions: read-out: PKMYT1 IC50, 15 nM PKMYT1 kinase domain, 500 µM ATP, 60 minutes at 26° C., banded
Description: Human PKMYT1 75-362 was cloned as a TEV cleavable 6xHis fusion in bacterial cells. After purification on a Ni++HiTrap Chelating HP column, the His-tag was cleaved using TEV protease. Cleaved PKMYT1 was further purified on a Superdex 200 16/600 sizing column. The fractions containing PKMYT1 were pooled and concentrated using an ultrafiltration centrifugal protein concentrator. The purified protein was aliquoted, flash frozen in liquid nitrogen, and stored at −80° C.
PKMYT1 biochemical assay: Inhibition of PKMYT1 was assessed using the ADP-Glo™ Max Detection System from Promega. This assay detects the production of ADP from ATP by PKMYT1 via a two-step process ultimately involving the conversion of ADP to ATP with the latter converted to light in a coupled reaction with luciferase/luciferin. Inhibition of PKMYT1 by small molecule inhibitors results in a retardation of luminescence above background. The intrinsic ATPase activity of PKMYT1 was assessed according to the following protocol. […] After 60 minutes the luminescence signal was read on a PHERAStar FS microplate reader (BMG Labtech).
Data analysis: Data was captured and analysed within the Dotmatics Studies software module where dose response curves were generated and IC50 values determined. […]

[2] = biological target: WEE1 (Homo sapiens, UniProt P30291); experiment: Selectivity versus WEE1 assay (ADP-Glo enzymatic assay); conditions: banded; for PKMYT1 vs. WEE1 selectivity: fold difference in selectivity for PKMYT1 over WEE1, ">N" = at least in this band but could be higher; for IC50: read-out: WEE1 IC50, ADP-Glo, 15 nM WEE1, 30 µM ATP, 60 minutes at 26° C.
Description: Selectivity versus WEE1 assay: Selectivity was established using the same format as outlined for PKMYT1. After dosing of compounds via the Echo acoustic dispenser—as described above—WEE1 (Thermo Fisher PR7373A) was added to each well at a final concentration of 15 nM in a buffer of 50 mM HEPES (pH 7.5), 10 mM MgCl2, 1 mM EGTA, 0.01% Brij-35, 1% DMSO. 30 µM ATP was added to start the reaction with the final assay volume being 4 μl. The plate was then incubated for 60 minutes at 26° C. before the addition of 4 μl of ADP-Glo Reagent. Following a further 60 minute incubation the assay signal was developed by the addition of 8 μl ADP-Glo Detection Reagent. After 60 minutes the luminescence signal was read on a PHERAStar FS microplate reader (BMG Labtech).
Data analysis: Data was captured and analysed within the Dotmatics Studies software module where dose response curves were generated and IC50 values determined. Acceptance and verification of data followed strict in-house business rules which are summarised as follows. […] Technical and biological replicates of each compound are routinely tested and replicate IC50 values must fall within 3-fold of each other with dose response curves showing ‘goodness of fit’ r2 values >0.9. Failure to meet any of these defined criteria result in rejection of data.

| IC50 [1] [µM] | PKMYT1 vs. WEE1 selectivity [2] | IC50 [2] [µM] | Compound |
| --- | --- | --- | --- |
| 0.05 to 1 | W (10-<100 fold) | > 11 | CCCCn1nc(Nc2ncc(C(=O)Nc3c(C)ccc(O)c3C)s2)cc1C |
| < 0.05 | Y (1000-5000 fold) | > 11 | CCCCn1nc(C)cc1Nc1ncc(C(=O)Nc2c(C)ccc(O)c2C)s1 |
